Measurements from article PMC6778148.
No constants are given. Whether binding was seen depends on the method and setting. Some entries that bind do so weakly or less than the wild type. Sequences can lack the tags named with a protein.

Tests used:
[1] = target: [15N]PSD-95-12, NMR sample (His tag removed) (rat); assay: NMR titration; 15N-HSQC of 80 µM 15N-labelled tandem PDZ domains, free and after addition of 100 µM natural abundance Xph clone; PBS, 298 K, 700 MHz; both purified
[2] = target: PSD-95 PDZ domain 1 (PSD-95-1), NMR sample (rat); assay: NMR titration; 15N-HSQC of 100 µM [15N]PSD-95-1 or [15N]PSD-95-2, free and after addition of 120 µM natural abundance Xph clone; PBS, 298 K, 700 MHz; both purified
[3] = target: biotinylated PSD-95-12, from pbIG (rat); assay: SPR; Biacore X100, single cycle kinetics; biotinylated tandem PDZ domains captured (ligand, about 100-220 RU), Xph clone as analyte (five two-fold dilutions up to 2 µM, 1 µM or 500 nM); biphasic curves, qualitative only; both purified

binding [1]	binding [2]	binding [3]	Binder
binds	binds	binds	Xph20 with C-terminal SUMO fusion, from pET-SUMOc (designed binder) SSVSSVPTKLEVVAATPTSLLISWDAVAKNVKVGYYRITYGETGGNSPVQEFTVPGSSSTATISGLSPGVDYTITVYANGVLSKMVLPISINYRT
binds		binds	Xph15 with C-terminal SUMO fusion, from pET-SUMOc (designed binder) SSVSSVPTKLEVVAATPTSLLISWDAGPRNVSYYRITYGETGGNSPVQEFTVPGSSSTATISGLSPGVDYTITVYASGHVSTLMTPISINYRT
binds		binds	Xph18 with C-terminal SUMO fusion, from pET-SUMOc (designed binder) SSVSSVPTKLEVVAATPTSLLISWDAHSRMAWVNYYRITYGETGGNSPVQEFTVPGSSSTATISGLSPGVDYTITVYANGGGFRRGMAPISINYRT
